In paper doi:10.1101/2024.12.23.630205 (bioRxiv, 2024):
No constants are given. Whether binding was seen depends on the method and setting. In cells and extracts the contact can be indirect. Some binding calls cover weakened binding; strength is not graded here. Sequences can lack the tags named with a protein.

Target: T1, His-SIRT2 (hSIRT2 36-356 aa) (human) (UniProt Q8IXJ6)
T1 sequence: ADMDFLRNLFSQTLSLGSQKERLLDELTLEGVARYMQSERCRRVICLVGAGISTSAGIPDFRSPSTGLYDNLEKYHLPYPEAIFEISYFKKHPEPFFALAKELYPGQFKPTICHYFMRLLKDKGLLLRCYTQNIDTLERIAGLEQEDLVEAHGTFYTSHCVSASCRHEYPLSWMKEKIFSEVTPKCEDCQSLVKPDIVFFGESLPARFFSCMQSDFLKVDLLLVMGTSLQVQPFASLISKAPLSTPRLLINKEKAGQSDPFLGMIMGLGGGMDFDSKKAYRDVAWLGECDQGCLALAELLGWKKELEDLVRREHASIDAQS
Experiment: pull-down

B1: GST-TULP3 (60-442 aa, construct-2) (domain or fragment, human, UniProt O75386 60-442, looked up)
chain: AKPRASDEQTPLVNCHTPHSNVILHGIDGPAAVLKPDEVHAPSVSSSVVEEDAENTVDTASKPGLQERLQKHDISESVNFDEETDGISQSACLERPNSASSQNSTDTGTSGSATAAQPADNLLGDIDDLEDFVYSPAPQGVTVRCRIIRDKRGMDRGLFPTYYMYLEKEENQKIFLLAARKRKKSKTANYLISIDPVDLSREGESYVGKLRSNLMGTKFTVYDRGICPMKGRGLVGAAHTRQELAAISYETNVLGFKGPRKMSVIIPGMTLNHKQIPYQPQNNHDSLLSRWQNRTMENLVELHNKAPVWNSDTQSYVLNFRGRVTQASVKNFQIVHKNDPDYIVMQFGRVADDVFTLDYNYPLCAVQAFGIGLSSFDSKLACE
For B1, the binding was “binds”.
